Measured data: PubChem BioAssay AID1671195 (Yale University, 2021)
Aim: 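Regulators of LDL receptor activity judged by labelled LDL uptake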 (primary screen). Cells: human Huh7 hepatoma cells. Reagent: siRNA pool against human genes, 18 nM. Time to read-out: about 2 to 2.5 days of knockdown, then 8 h LDL uptake. Treatment: DiI-labelled LDL at 30 µg/ml for 8 h, in lipoprotein-deficient serum medium. Detection: 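Fluorescent LDL signal imaged in cells, scaled to the plate median, robust z-score for each replicate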. Reading the numbers: robust z-score: higher = more LDL uptake after knockdown. Rule for the call: 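a gene counts as active if at least two replicate z-scores exceed ±2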.
The deposit covers about 22,000 reagents; below is a random part of them. About 1,510 of all reagents (6.9%) count as active. 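Active includes knockdowns raising or lowering LDL uptake; positive z-scores mean more uptake, negative mean less.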 A number with no mark means an inactive call.

How did the screen score LOC441499 (retired record)?
robust z-score, replicate 1: -1.26; robust z-score, replicate 2: -1.02; robust z-score, replicate 3: -0.843

For TOPAZ1, how do the results read?
robust z-score, replicate 1: 1.49; robust z-score, replicate 2: 1.37; robust z-score, replicate 3: 1.59

For GAREM2, what does the deposit list?
robust z-score, replicate 1: -0.664; robust z-score, replicate 2: -0.962; robust z-score, replicate 3: -1.22

With RRAS, what was measured?
robust z-score, replicate 1: 0.48; robust z-score, replicate 2: -0.804; robust z-score, replicate 3: 0.141

With LINC01565, what does the deposit list?
robust z-score, replicate 1: -1.36; robust z-score, replicate 2: -2.24; robust z-score, replicate 3: -0.941

With LRRC19, what was measured?
robust z-score, replicate 1: 2.64 (active); robust z-score, replicate 2: 2.71; robust z-score, replicate 3: 2.44

What is on record for BZW2?
robust z-score, replicate 1: 0.645; robust z-score, replicate 2: -1.6; robust z-score, replicate 3: -0.135

With LOC390633 (retired record), what does the deposit list?
robust z-score, replicate 1: -0.0912; robust z-score, replicate 2: -0.0472; robust z-score, replicate 3: 0.135

What did the screen give for SOAT2?
robust z-score, replicate 1: 0.0593; robust z-score, replicate 2: 0.24; robust z-score, replicate 3: 0.000668

What is on record for LOC342853 (retired record)?
robust z-score, replicate 1: -0.137; robust z-score, replicate 2: -0.281; robust z-score, replicate 3: -0.0882

Which result is listed for GPR165P?
robust z-score, replicate 1: -0.746; robust z-score, replicate 2: 0.883; robust z-score, replicate 3: 0.804

How did the screen score FAM43B?
robust z-score, replicate 1: -0.451; robust z-score, replicate 2: -0.569; robust z-score, replicate 3: -0.344

Part of the list above in another layout:
{"target":"TOPAZ1","robust z-score, replicate 1":1.49,"robust z-score, replicate 2":1.37,"robust z-score, replicate 3":1.59}
{"target":"GAREM2","robust z-score, replicate 1":-0.664,"robust z-score, replicate 2":-0.962,"robust z-score, replicate 3":-1.22}
